Data published in the supplement of paper PMC10849652.
Some of the results follow.

Sequences of proteins named here, by UniProt entry; tags and fusion partners are left off. A change or cut given only in a name is not applied to a line headed by its entry.
UniProt Q9UKJ3: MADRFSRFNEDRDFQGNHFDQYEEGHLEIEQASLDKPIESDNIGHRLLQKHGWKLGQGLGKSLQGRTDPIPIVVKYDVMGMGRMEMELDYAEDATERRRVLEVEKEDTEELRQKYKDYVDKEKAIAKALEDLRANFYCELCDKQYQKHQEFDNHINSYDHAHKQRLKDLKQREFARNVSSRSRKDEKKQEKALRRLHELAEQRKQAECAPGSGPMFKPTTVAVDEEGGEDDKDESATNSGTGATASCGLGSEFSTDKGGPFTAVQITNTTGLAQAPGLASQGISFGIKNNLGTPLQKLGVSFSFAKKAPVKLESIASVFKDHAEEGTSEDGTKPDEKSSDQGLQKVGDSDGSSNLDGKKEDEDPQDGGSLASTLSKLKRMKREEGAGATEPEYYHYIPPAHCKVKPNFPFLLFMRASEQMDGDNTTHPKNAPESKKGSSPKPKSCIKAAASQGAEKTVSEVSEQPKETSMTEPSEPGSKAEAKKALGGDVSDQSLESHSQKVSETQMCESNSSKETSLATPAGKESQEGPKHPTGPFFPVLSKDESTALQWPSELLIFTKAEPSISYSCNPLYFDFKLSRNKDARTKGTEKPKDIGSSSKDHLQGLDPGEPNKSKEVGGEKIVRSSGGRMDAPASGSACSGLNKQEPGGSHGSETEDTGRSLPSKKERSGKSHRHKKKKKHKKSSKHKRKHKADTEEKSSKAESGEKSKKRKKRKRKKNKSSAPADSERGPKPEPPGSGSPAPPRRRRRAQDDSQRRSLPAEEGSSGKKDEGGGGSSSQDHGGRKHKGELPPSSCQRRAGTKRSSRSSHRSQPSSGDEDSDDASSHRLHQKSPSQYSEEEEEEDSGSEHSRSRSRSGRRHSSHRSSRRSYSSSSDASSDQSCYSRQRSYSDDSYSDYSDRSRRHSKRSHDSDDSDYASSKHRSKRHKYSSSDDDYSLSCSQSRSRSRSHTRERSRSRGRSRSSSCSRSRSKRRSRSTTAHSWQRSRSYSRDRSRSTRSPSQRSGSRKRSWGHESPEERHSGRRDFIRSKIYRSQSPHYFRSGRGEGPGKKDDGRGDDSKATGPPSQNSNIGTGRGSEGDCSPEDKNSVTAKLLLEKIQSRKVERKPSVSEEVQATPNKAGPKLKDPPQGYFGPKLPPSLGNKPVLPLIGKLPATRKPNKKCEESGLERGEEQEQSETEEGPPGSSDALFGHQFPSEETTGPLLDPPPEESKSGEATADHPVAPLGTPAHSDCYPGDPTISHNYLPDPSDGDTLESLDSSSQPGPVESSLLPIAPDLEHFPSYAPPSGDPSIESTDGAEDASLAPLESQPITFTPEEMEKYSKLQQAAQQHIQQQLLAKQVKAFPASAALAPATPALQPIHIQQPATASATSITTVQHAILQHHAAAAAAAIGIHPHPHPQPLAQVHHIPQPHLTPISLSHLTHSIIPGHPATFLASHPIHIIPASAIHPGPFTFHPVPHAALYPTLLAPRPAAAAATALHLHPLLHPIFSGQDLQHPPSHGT
UniProt Q92917: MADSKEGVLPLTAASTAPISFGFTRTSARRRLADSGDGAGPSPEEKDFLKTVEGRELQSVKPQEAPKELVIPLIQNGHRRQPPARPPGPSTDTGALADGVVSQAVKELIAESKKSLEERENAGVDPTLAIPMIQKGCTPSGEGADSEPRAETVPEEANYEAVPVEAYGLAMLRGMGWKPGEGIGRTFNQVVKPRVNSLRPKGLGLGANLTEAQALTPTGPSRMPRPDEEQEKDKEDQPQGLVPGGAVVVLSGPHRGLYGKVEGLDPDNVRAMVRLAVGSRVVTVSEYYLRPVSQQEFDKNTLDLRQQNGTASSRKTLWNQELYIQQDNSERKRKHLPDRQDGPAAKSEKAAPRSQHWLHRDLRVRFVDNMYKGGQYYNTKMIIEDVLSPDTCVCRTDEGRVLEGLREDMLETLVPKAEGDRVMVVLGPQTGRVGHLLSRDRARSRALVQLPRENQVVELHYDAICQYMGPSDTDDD
UniProt Q9BRT9, whole entry, looked up: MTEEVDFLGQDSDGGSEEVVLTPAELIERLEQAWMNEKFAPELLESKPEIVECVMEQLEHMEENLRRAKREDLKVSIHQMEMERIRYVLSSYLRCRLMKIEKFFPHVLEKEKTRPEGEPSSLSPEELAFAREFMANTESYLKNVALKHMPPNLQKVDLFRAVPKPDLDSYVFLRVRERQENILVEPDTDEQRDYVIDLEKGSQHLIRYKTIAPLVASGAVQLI
UniProt Q9HCN4, whole entry, looked up: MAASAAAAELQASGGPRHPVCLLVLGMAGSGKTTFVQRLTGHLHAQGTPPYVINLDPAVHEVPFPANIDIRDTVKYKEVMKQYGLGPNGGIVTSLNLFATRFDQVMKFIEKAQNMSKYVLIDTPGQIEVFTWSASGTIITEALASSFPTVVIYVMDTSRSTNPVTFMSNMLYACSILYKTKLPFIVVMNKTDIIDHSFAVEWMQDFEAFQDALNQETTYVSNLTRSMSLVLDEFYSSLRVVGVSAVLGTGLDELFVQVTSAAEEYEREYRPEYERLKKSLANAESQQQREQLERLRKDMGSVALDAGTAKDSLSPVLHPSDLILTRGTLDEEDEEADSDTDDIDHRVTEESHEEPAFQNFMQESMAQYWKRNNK
UniProt Q08378: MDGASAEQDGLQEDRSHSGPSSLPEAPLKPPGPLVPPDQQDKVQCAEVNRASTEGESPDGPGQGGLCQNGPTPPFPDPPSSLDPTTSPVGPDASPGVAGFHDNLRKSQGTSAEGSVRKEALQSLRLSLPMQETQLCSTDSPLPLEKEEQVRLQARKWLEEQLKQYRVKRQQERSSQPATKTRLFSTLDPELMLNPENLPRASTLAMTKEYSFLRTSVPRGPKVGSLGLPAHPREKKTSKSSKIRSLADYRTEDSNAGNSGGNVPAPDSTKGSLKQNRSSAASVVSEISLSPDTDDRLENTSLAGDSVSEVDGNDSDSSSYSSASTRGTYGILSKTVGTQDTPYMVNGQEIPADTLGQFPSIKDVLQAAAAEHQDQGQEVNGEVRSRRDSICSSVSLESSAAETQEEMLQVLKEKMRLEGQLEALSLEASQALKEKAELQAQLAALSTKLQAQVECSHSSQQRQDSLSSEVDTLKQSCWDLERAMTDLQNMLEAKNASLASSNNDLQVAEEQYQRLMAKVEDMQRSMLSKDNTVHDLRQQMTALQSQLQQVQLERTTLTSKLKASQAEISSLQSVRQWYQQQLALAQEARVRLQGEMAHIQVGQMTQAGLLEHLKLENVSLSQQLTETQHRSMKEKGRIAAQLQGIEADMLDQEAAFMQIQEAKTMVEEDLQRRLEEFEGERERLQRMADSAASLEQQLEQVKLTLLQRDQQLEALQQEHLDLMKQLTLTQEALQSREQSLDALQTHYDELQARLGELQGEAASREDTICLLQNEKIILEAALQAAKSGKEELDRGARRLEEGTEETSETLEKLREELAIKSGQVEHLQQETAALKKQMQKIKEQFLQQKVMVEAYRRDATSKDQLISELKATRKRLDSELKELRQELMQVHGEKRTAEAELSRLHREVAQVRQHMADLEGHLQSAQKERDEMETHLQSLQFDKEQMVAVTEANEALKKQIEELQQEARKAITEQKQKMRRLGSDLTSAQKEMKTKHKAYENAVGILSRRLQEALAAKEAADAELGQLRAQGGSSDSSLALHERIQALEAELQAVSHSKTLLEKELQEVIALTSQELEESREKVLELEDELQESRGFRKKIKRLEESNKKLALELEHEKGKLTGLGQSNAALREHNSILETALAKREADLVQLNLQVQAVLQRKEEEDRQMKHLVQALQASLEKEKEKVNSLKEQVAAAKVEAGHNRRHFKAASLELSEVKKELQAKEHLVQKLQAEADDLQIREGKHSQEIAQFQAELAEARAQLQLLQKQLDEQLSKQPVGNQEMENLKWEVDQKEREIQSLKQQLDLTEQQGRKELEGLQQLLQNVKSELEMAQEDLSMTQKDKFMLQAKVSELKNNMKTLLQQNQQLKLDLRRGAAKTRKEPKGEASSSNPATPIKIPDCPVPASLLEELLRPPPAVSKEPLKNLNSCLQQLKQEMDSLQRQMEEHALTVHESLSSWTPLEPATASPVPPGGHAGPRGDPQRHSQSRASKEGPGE
UniProt Q5JWF2, whole entry, looked up: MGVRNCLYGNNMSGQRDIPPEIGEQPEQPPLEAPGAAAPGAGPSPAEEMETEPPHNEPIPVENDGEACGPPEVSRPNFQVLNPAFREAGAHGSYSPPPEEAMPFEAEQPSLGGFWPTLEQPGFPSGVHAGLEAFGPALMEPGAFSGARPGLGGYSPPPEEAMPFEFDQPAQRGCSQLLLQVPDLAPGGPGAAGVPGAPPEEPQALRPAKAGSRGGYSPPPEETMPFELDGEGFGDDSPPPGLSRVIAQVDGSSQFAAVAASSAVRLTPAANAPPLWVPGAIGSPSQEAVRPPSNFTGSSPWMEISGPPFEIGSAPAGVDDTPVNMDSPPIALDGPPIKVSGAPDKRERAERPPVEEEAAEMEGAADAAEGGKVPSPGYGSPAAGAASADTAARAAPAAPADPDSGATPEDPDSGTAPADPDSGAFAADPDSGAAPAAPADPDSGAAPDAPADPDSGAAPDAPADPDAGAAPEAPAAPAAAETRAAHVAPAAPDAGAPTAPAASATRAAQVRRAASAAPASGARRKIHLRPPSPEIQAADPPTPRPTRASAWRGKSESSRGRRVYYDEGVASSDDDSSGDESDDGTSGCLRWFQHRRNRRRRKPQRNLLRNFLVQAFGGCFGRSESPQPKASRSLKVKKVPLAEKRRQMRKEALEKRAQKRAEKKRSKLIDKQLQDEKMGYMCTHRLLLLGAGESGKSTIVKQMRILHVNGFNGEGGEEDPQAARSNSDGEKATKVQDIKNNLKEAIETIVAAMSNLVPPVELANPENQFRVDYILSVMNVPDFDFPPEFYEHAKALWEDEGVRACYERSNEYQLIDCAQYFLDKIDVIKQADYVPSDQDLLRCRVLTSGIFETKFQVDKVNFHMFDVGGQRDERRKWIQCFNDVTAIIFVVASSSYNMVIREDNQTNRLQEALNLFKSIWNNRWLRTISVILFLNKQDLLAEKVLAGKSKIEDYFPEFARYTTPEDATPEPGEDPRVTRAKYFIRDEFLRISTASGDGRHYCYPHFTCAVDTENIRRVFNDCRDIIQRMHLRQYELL
UniProt Q9HC44: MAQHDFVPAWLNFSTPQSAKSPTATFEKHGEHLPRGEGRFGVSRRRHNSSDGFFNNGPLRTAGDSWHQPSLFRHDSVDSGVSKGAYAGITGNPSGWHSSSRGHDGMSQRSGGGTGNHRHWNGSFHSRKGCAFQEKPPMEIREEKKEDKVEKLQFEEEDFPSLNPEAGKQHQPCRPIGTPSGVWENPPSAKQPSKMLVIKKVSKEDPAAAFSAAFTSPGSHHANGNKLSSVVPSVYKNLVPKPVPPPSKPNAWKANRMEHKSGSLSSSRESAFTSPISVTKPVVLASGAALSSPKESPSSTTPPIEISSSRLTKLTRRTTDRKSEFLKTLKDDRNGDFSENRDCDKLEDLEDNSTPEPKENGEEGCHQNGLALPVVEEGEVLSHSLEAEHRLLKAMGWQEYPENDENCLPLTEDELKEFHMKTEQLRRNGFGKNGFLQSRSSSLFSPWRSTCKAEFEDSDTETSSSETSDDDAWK
UniProt O94925: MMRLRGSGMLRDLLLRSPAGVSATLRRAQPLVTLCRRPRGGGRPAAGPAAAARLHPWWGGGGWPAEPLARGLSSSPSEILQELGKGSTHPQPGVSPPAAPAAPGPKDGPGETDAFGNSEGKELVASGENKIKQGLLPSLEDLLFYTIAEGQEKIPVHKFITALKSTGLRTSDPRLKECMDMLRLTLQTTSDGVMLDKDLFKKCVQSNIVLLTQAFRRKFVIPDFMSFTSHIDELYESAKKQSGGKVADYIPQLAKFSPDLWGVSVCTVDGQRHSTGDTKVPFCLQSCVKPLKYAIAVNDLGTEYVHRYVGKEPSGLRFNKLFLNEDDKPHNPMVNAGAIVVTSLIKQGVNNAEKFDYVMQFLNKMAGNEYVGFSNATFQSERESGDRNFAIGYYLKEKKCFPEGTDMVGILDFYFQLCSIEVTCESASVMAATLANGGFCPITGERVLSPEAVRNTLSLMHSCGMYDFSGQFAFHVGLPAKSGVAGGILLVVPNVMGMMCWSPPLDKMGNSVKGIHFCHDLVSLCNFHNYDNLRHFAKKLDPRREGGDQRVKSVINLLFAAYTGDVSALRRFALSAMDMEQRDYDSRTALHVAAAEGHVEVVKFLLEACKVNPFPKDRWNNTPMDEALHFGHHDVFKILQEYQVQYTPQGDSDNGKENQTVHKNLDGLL
UniProt Q9UBQ7: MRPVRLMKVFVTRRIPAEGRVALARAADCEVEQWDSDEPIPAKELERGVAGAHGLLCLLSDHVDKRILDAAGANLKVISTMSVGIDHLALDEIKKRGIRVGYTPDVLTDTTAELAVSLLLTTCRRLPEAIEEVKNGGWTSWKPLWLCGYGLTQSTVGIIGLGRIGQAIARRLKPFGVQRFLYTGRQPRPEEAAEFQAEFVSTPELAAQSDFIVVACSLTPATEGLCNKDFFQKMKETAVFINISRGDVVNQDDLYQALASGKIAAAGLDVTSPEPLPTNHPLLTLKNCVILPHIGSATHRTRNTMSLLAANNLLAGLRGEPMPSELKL

Assays:
Assay in all cases: log2 fold change, soluble protein after heating vs DMSO (PISA); higher = thermal stabilisation; K562 cells, 10 uM, 30 min; active = over 0.2 and 3.5 SD of the protein, either way, in both replicates (recomputed)
[1] = compound: COC1=CC=C(C=C1)CN2C=CC3=C2C=C(C=C3)C(=O)NO
Summary of the method: (§1)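 Soluble protein was defined as the supernatant after 21,000xg for 90 min. It came from K562 cells at 2×10^6 cells/mL given 10 μM compound for 30 min, heated in aliquots for 3 min across 48°C-58°C, pooled, and extracted in PBS with 0.5% NP-40 at 4°C, and was quantified by TMTpro 16plex LC-MS/MS with equalised channel sums. Thermal stability against control samples, from duplicates, is reported as log2 fold change.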

filanesib = compound: CON(C)C(=O)N1N=C(c2cc(F)ccc2F)S[C@@]1(CCCN)c1ccccc1 [filanesib]
Summary of the method: as §1

zotarolimus = compound: CO[C@H]1C[C@@H]2CC[C@@H](C)[C@@](O)(O2)C(=O)C(=O)N2CCCC[C@H]2C(=O)O[C@H]([C@H](C)C[C@@H]2CC[C@H](n3cnnn3)[C@H](OC)C2)CC(=O)[C@H](C)/C=C(\C)[C@@H](O)[C@@H](OC)C(=O)[C@H](C)C[C@H](C)/C=C/C=C/C=C/1C [zotarolimus]
Summary of the method: as §1

idasanutlin = compound: COc1cc(C(=O)O)ccc1NC(=O)[C@@H]1N[C@@H](CC(C)(C)C)[C@](C#N)(c2ccc(Cl)cc2F)[C@H]1c1cccc(Cl)c1F [idasanutlin]
Summary of the method: as §1

alisertib = compound: COc1cc(Nc2ncc3c(n2)-c2ccc(Cl)cc2C(c2c(F)cccc2OC)=NC3)ccc1C(=O)O [alisertib]
Summary of the method: as §1

[2] = compound: COc1cc2nc(-c3cc(F)ccc3O)nc(N[C@@H]3CNC[C@H]3C(C)(C)O)c2cc1OC
Summary of the method: as §1

gefitinib = compound: COc1cc2ncnc(Nc3ccc(F)c(Cl)c3)c2cc1OCCCN1CCOCC1 [gefitinib]
Summary of the method: as §1

[3] = compound: COc1cccc2cc(-c3nc([C@H]4CC[C@H](C(=O)O)CC4)n4ncnc(N)c34)[nH]c12
Summary of the method: as §1

lapatinib = compound: CS(=O)(=O)CCNCc1ccc(-c2ccc3ncnc(Nc4ccc(OCc5cccc(F)c5)c(Cl)c4)c3c2)o1 [lapatinib]
Summary of the method: as §1

pictilisib = compound: CS(=O)(=O)N1CCN(Cc2cc3nc(-c4cccc5[nH]ncc45)nc(N4CCOCC4)c3s2)CC1 [pictilisib]
Summary of the method: as §1

Measured: log2 fold change

GPS1 isoform 7 (UniProt Q13098)
inactive: [1] 0.014 | filanesib -0.024 | zotarolimus 0.02 | idasanutlin -0.028 | alisertib -0.042 | [2] -0.031 | gefitinib 0.008 | [3] 0.003 | lapatinib 0.016 | pictilisib -0.01

GPATCH8 (UniProt Q9UKJ3)
inactive: [1] 0.067 | filanesib 0.067 | zotarolimus -0.025 | idasanutlin 0.008 | alisertib -0.099 | [2] 0.146 | gefitinib 0.023 | [3] 0.059 | lapatinib 0.03 | pictilisib 0.003

GPKOW (UniProt Q92917)
inactive: [1] -0.055 | filanesib -0.118 | zotarolimus 0.024 | idasanutlin -0.06 | alisertib 0.039 | [2] -0.021 | gefitinib 0.047 | [3] 0.11 | lapatinib -0.005 | pictilisib -0.037

GM2A (UniProt P17900)
inactive: [1] -0.009 | filanesib -0.009 | zotarolimus 0 | idasanutlin 0.041 | alisertib 0.198 | [2] -0.012 | gefitinib 0.088 | [3] -0.02 | lapatinib 0.004 | pictilisib 0.083

GINS4 (UniProt Q9BRT9)
inactive: [1] 0.032 | filanesib -0.065 | zotarolimus 0.014 | idasanutlin -0.015 | alisertib -0.037 | [2] 0.058 | gefitinib 0 | [3] 0.004 | lapatinib -0.032 | pictilisib -0.061

Random excerpt: 2 records from the list
GPATCH8 (UniProt Q9UKJ3)
inactive: [1] 0.067 | filanesib 0.067 | zotarolimus -0.025 | idasanutlin 0.008 | alisertib -0.099 | [2] 0.146 | gefitinib 0.023 | [3] 0.059 | lapatinib 0.03 | pictilisib 0.003

GPS1 isoform 7 (UniProt Q13098)
inactive: [1] 0.014 | filanesib -0.024 | zotarolimus 0.02 | idasanutlin -0.028 | alisertib -0.042 | [2] -0.031 | gefitinib 0.008 | [3] 0.003 | lapatinib 0.016 | pictilisib -0.01

Additional results.

GPN1 isoform 5 (UniProt Q9HCN4)
inactive: [1] 0.045 | filanesib -0.004 | zotarolimus -0.008 | idasanutlin -0.019 | alisertib -0.035 | [2] -0.042 | gefitinib 0.002 | [3] 0.097 | lapatinib 0.051 | pictilisib 0.033

GPX4 (UniProt P36969)
inactive: [1] -0.035 | filanesib -0.011 | idasanutlin 0.032 | alisertib -0.02 | [2] 0.003 | gefitinib -0.004 | [3] 0.076 | lapatinib -0.036 | pictilisib -0.034
active: zotarolimus -0.248

GIPC1 (UniProt O14908)
inactive: [1] -0.01 | filanesib 0.067 | zotarolimus 0.019 | idasanutlin -0.076 | alisertib -0.009 | [2] 0.048 | gefitinib 0.07 | [3] -0.007 | lapatinib -0.036 | pictilisib 0.078

GOLGA4 isoform 5 (UniProt Q13439)
inactive: [1] -0.041 | filanesib 0.033 | zotarolimus 0.012 | idasanutlin 0.027 | alisertib 0.044 | [2] 0.15 | gefitinib 0.072 | [3] -0.094 | lapatinib -0.13 | pictilisib -0.041

GLB1 (UniProt P16278)
inactive: [1] 0.002 | filanesib -0.033 | zotarolimus 0.009 | idasanutlin -0.015 | alisertib -0.078 | [2] -0.015 | gefitinib 0.031 | [3] 0.045 | lapatinib 0.024 | pictilisib 0.006

GPN2 (UniProt Q9H9Y4)
inactive: [1] -0.193 | filanesib 0.022 | zotarolimus -0.054 | idasanutlin 0.027 | alisertib -0.045 | [2] -0.045 | gefitinib -0.056 | [3] 0.039 | lapatinib 0.033 | pictilisib 0.119

GOLGA3 (UniProt Q08378)
inactive: [1] 0.025 | filanesib -0.013 | zotarolimus 0.031 | idasanutlin -0.04 | alisertib 0.037 | [2] -0.032 | gefitinib 0.014 | [3] -0.038 | lapatinib 0.025 | pictilisib 0.032

GMDS (UniProt O60547)
inactive: [1] 0.014 | filanesib -0.021 | zotarolimus 0.015 | idasanutlin -0.057 | alisertib -0.046 | [2] 0.044 | gefitinib 0.003 | [3] 0.095 | lapatinib -0.034 | pictilisib 0.058

GPATCH11 (UniProt Q8N954)
inactive: [1] 0.075 | filanesib 0.042 | zotarolimus -0.016 | idasanutlin 0.031 | alisertib -0.036 | [2] 0.08 | gefitinib -0.015 | [3] -0.012 | lapatinib -0.047 | pictilisib 0.029

GNAS (UniProt Q5JWF2)
inactive: [1] -0.048 | filanesib 0 | zotarolimus -0.03 | idasanutlin -0.048 | alisertib -0.09 | [2] 0.052 | gefitinib 0.108 | [3] -0.077 | lapatinib 0.02 | pictilisib 0.051

GRSF1 (UniProt Q12849)
inactive: [1] 0 | filanesib -0.11 | zotarolimus 0.086 | idasanutlin 0.28 | alisertib 0.057 | [2] -0.194 | gefitinib -0.049 | [3] -0.014 | lapatinib 0.052 | pictilisib -0.06

GOLIM4 (UniProt F8W785)
inactive: [1] -0.025 | filanesib -0.004 | zotarolimus -0.034 | gefitinib 0.074 | pictilisib 0.054

GLRX2 isoform 2 (UniProt Q9NS18)
inactive: [1] 0.064 | filanesib 0.016 | zotarolimus 0.051 | idasanutlin -0.007 | alisertib -0.232 | [2] -0.057 | gefitinib 0.02 | [3] 0.036 | lapatinib -0.048 | pictilisib 0.066

GPBP1 isoform 2 (UniProt Q86WP2)
inactive: [1] -0.009 | filanesib -0.01 | zotarolimus -0.093 | idasanutlin 0.098 | alisertib -0.097 | [2] -0.084 | gefitinib 0.03 | [3] -0.048 | lapatinib 0.027 | pictilisib -0.045

GRPEL1 (UniProt Q9HAV7)
inactive: [1] -0.032 | filanesib -0.036 | zotarolimus 0.015 | idasanutlin -0.045 | alisertib -0.04 | [2] 0.014 | gefitinib 0.009 | [3] 0.004 | lapatinib -0.059 | pictilisib 0.068

GOSR1 (UniProt O95249)
inactive: [1] -0.04 | filanesib -0.057 | zotarolimus -0.018 | idasanutlin 0.026 | alisertib -0.08 | [2] -0.162 | gefitinib 0.006 | [3] 0.058 | lapatinib -0.037 | pictilisib 0.033

GPBP1L1 (UniProt Q9HC44)
inactive: [1] -0.014 | filanesib 0.007 | zotarolimus 0.034 | idasanutlin 0.019 | alisertib 0.041 | [2] -0.012 | gefitinib -0.036 | [3] 0.08 | lapatinib 0.05 | pictilisib -0.038

GORASP2 isoform 3 (UniProt Q9H8Y8)
inactive: [1] -0.035 | filanesib 0.093 | zotarolimus 0.001 | idasanutlin -0.112 | alisertib 0.041 | [2] 0.057 | gefitinib 0.007 | [3] -0.025 | lapatinib -0.089 | pictilisib 0.017

GLS isoform 3 (UniProt O94925)
inactive: [1] -0.021 | filanesib -0.029 | zotarolimus 0.008 | idasanutlin -0.26 | alisertib -0.003 | [2] 0.216 | gefitinib 0.041 | [3] 0.031 | lapatinib 0 | pictilisib 0.078

GRHPR (UniProt Q9UBQ7)
inactive: [1] -0.029 | filanesib -0.032 | zotarolimus 0.026 | idasanutlin -0.091 | alisertib -0.067 | [2] 0.055 | gefitinib 0.006 | [3] 0.08 | lapatinib -0.037 | pictilisib 0.14

GRAP2 (UniProt O75791)
inactive: [1] 0.111 | filanesib 0.175 | zotarolimus -0.055 | idasanutlin 0.006 | alisertib 0.023 | [2] 0.021 | gefitinib 0.152 | [3] -0.086 | lapatinib 0.034 | pictilisib 0.041

GRN (UniProt P28799)
inactive: [1] 0.004 | filanesib 0.016 | zotarolimus -0.121 | idasanutlin 0.034 | alisertib -0.132 | [2] 0.082 | gefitinib 0.17 | [3] 0.029 | lapatinib 0.12 | pictilisib 0.039

GNA12 (UniProt Q03113)
inactive: [1] -0.43 | filanesib 0.093 | zotarolimus -0.17 | idasanutlin -0.237 | alisertib -0.402 | [2] 0.406 | gefitinib -0.016 | [3] 0.071 | lapatinib -0.266 | pictilisib 0.148

GOLGA2 (UniProt Q08379)
inactive: [1] -0.044 | filanesib 0.139 | zotarolimus 0.097 | idasanutlin 0.109 | alisertib 0.137 | [2] 0.073 | gefitinib 0.008 | [3] -0.104 | lapatinib -0.019 | pictilisib -0.002

GINS2 (UniProt Q9Y248)
inactive: [1] 0.057 | filanesib -0.021 | zotarolimus 0.29 | alisertib -0.069 | [2] 0.025 | gefitinib 0.035 | [3] -0.089 | lapatinib -0.026 | pictilisib -0.119

GLCE (UniProt O94923)
inactive: [1] -0.073 | filanesib -0.005 | zotarolimus -0.117 | [2] 0.145 | gefitinib 0.221 | lapatinib 0.016
